Results reported in the supplement of paper PMC6411743.
± gives the standard deviation of the averaged measurements. Only a part is listed here, and it is no random draw. Most entries show no effect beyond the scatter of the controls.

The chains behind the UniProt entries cited, without tags or fusion partners. Where a name states a change or a piece, a line headed by the entry shows the natural chain unless it says otherwise.
UniProt Q9H4A4: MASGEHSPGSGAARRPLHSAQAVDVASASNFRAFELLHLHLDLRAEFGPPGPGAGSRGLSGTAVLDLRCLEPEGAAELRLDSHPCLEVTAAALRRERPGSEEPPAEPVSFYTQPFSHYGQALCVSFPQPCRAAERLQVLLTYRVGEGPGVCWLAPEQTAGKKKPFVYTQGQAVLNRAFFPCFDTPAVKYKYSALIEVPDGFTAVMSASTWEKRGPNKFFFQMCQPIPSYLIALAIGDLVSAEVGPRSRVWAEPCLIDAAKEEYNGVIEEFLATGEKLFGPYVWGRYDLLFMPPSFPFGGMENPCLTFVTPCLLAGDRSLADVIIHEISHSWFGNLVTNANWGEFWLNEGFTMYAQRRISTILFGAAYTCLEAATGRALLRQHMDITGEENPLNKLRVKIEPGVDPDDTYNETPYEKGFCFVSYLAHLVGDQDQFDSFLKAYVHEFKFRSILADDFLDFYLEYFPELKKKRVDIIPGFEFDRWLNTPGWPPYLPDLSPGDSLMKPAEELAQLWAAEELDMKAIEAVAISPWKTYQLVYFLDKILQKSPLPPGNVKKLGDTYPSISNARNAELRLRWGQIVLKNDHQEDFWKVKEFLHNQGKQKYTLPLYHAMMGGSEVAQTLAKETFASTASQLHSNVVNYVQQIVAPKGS
UniProt Q9HCJ0: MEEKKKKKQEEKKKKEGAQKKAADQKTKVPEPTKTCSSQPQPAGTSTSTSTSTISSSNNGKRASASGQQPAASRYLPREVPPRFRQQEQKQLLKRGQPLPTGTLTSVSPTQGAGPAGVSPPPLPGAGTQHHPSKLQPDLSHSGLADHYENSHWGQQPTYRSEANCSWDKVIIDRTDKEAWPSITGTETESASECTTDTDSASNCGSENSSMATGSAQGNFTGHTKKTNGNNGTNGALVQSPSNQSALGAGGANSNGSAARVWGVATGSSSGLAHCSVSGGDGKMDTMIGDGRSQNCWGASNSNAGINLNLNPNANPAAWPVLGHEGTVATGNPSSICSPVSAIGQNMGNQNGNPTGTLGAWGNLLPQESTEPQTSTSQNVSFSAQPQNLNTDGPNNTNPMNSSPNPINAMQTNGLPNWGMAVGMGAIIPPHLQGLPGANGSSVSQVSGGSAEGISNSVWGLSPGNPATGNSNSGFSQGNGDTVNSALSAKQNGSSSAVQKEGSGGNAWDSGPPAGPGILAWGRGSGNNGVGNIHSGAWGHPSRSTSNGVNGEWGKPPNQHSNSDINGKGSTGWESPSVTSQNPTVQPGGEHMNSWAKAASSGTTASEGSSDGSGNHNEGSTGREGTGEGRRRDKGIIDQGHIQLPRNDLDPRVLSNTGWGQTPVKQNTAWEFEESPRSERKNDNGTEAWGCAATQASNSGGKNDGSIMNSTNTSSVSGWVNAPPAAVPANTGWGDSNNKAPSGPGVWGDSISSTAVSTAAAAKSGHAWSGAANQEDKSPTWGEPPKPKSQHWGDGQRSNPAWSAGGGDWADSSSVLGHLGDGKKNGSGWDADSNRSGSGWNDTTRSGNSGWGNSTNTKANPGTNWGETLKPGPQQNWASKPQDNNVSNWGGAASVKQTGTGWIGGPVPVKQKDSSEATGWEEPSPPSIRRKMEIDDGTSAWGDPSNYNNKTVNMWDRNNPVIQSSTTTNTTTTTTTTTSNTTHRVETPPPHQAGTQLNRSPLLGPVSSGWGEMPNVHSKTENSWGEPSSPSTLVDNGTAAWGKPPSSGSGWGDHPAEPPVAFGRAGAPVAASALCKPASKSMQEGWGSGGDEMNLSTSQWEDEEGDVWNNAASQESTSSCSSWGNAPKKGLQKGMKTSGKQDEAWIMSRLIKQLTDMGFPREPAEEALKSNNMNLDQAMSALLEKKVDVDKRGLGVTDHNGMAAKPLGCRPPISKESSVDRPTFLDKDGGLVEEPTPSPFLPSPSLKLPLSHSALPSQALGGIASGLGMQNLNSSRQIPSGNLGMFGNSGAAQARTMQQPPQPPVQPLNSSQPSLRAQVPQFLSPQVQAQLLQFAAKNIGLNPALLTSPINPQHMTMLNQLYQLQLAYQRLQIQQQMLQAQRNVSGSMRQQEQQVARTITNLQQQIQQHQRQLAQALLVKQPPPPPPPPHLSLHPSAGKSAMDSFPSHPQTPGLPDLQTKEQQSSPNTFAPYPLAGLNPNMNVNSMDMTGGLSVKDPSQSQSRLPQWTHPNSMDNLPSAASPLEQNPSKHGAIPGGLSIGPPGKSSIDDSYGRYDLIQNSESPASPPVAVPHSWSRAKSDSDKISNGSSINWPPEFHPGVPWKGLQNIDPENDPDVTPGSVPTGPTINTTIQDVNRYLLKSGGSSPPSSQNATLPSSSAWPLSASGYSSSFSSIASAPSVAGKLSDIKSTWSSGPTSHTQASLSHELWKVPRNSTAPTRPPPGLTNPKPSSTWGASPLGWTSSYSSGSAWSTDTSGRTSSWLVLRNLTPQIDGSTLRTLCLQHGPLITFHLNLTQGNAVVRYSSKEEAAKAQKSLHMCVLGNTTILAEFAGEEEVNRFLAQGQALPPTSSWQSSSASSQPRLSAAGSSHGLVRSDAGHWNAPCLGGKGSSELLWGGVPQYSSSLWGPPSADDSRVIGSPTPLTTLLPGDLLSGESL
UniProt Q9HC16: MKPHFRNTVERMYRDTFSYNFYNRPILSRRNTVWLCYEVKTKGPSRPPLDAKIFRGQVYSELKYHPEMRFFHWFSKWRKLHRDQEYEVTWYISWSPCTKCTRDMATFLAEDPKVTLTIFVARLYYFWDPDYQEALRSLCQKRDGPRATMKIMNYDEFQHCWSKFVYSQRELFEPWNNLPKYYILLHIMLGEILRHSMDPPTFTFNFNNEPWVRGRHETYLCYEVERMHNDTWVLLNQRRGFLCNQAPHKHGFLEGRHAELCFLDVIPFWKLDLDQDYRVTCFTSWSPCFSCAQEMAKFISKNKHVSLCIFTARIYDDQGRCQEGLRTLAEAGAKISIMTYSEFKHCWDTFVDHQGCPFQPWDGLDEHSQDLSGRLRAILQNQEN
UniProt Q9H0K6: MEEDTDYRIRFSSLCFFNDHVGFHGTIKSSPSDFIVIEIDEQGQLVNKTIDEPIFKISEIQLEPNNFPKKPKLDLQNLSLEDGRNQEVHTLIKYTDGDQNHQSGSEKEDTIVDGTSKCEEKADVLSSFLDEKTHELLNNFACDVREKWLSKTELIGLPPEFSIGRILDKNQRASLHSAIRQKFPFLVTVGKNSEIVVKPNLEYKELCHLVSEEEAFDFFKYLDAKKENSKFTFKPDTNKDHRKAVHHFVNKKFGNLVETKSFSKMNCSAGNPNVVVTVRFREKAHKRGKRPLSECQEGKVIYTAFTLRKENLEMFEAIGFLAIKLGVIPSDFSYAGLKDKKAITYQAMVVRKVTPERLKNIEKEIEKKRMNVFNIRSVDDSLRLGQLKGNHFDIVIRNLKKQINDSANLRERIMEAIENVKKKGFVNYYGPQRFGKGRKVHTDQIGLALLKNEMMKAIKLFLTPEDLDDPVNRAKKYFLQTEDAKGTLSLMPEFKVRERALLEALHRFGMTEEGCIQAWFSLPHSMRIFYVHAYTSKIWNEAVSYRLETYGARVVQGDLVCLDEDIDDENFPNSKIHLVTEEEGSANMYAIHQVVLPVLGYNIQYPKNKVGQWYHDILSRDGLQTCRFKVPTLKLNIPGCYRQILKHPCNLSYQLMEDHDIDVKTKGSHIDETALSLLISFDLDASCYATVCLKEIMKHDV
UniProt Q9H3R5: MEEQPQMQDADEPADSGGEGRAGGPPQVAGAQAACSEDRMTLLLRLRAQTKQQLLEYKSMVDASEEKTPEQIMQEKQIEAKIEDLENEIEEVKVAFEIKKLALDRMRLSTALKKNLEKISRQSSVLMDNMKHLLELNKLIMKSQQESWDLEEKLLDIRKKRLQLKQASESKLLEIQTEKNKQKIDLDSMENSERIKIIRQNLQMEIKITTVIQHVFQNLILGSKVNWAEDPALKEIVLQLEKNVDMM
UniProt Q9H2K0, whole entry, looked up: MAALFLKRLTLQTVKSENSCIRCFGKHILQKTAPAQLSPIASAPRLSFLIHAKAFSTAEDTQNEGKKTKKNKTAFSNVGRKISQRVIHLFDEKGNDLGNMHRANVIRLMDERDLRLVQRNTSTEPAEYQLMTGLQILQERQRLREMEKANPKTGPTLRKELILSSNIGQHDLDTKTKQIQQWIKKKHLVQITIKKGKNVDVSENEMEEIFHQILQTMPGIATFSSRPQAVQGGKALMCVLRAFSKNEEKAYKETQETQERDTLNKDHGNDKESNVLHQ
UniProt Q9H098: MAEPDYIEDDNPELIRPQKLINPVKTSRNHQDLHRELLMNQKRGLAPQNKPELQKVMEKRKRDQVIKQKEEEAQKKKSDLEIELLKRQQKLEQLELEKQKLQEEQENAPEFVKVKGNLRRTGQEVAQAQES
UniProt Q9HB90, whole entry: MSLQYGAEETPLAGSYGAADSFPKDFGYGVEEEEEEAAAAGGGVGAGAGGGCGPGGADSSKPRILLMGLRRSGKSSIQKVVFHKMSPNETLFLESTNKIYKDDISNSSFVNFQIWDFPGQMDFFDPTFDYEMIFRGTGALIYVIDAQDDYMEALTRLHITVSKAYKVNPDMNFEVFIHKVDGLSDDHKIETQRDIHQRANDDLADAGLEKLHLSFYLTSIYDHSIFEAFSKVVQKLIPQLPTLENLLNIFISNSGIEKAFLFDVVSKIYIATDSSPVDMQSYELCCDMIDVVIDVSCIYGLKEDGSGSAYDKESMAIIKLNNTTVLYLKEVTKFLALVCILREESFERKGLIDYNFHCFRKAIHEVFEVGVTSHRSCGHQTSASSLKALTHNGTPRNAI
UniProt Q9HAU0: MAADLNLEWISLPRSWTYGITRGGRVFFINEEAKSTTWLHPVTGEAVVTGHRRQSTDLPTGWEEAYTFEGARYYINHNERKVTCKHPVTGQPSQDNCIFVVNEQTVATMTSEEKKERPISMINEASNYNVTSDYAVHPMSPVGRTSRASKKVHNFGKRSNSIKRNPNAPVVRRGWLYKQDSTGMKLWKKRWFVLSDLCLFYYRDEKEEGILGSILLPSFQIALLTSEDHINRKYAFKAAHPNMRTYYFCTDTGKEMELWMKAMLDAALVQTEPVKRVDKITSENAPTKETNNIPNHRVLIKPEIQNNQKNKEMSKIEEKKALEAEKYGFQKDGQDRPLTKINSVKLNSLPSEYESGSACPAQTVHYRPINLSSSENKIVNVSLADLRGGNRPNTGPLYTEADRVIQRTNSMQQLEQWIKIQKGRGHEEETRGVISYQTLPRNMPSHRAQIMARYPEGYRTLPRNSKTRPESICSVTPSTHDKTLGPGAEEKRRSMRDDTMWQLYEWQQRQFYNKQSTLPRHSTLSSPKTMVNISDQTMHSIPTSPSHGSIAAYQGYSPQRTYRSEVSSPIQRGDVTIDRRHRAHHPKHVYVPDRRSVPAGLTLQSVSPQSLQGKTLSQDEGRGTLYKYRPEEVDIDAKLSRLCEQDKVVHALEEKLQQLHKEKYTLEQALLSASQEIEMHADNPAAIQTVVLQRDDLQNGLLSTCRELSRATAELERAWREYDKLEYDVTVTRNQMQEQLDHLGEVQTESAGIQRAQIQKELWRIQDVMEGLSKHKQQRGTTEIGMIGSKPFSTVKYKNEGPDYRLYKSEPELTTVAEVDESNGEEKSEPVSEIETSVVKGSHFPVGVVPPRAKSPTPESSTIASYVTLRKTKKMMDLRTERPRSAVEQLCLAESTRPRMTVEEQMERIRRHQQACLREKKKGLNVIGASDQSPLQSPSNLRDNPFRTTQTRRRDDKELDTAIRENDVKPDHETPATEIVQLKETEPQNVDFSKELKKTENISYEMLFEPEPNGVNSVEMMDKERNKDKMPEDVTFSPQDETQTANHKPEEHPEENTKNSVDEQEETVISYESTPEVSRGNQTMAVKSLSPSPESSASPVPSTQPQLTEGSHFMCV
UniProt Q9HBH1: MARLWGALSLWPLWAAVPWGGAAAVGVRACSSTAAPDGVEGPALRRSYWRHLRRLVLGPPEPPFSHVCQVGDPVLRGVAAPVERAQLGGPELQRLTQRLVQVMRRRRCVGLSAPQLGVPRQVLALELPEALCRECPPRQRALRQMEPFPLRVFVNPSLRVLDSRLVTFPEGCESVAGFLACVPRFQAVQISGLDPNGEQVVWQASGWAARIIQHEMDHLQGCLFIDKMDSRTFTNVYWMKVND
UniProt Q9H814, whole entry: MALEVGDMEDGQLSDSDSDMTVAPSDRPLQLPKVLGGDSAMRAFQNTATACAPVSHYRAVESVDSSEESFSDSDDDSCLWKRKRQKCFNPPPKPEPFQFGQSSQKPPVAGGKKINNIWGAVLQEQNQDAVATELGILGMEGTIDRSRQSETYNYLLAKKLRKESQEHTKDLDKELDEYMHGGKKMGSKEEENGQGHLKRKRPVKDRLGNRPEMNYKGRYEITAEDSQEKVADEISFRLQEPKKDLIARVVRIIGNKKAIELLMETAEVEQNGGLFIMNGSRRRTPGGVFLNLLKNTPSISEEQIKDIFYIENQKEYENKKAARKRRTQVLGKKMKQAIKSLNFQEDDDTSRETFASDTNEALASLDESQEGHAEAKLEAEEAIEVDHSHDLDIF
UniProt Q9HD34: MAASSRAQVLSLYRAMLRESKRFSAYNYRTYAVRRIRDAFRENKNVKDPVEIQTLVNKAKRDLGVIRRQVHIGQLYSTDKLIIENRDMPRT

Compound: Nc1ncnc2c1ncn2[C@@H]1O[C@H](COP(=O)(O)OP(=O)(O)OP(=O)(O)O)[C@@H](O)[C@H]1O [adenosine triphosphate]
Assay: NP40-soluble protein abundance relative to vehicle (solubility fold change) (ratio); higher = more soluble protein in presence of ATP
Conditions: concentration: 0.1mM
In short: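 Jurkat crude lysate prepared with a Dounce homogeniser was treated at eight concentrations spanning 0.1 to 10 mM, 10 min at room temperature then 3 min at 37 °C. Solubilisation with 0.8% NP40 and benzonase and ultracentrifugation preceded TMT labelling of the supernatant for LC-MS/MS. Fold change against the detergent-processed vehicle was determined per replicate from vsn-normalised intensities, across three independent experiments.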

Target	NP40-soluble protein abundance
UniProt Q9H4A4 and related entries	1.05 ± 0.057
EHMT1 (UniProt Q9H9B1)	0.91327 ± 0.00072
UniProt Q9HCJ0 and related entries	0.979 ± 0.07
RACGAP1 (UniProt Q9H0H5)	1 ± 0.03
APOBEC3G (UniProt Q9HC16)	0.977 ± 0.11
PUS7L (UniProt Q9H0K6)	1.12 ± 0.055
CENPH (UniProt Q9H3R5)	0.956 ± 0.12
MTIF3 (UniProt Q9H2K0)	0.976 ± 0.13
UniProt Q9H6Z4 and related entries	0.9739 ± 0.0088
PTPN23 (UniProt Q9H3S7)	1.06 ± 0.067
UniProt Q9HAF1 and related entries	0.91 ± 0.13
UniProt Q9H098 and related entries	0.915 ± 0.17
DSN1 (UniProt Q9H410)	1 ± 0.021
RRAGC (UniProt Q9HB90)	1.04 ± 0.14
ATG5 (UniProt Q9H1Y0)	1.01 ± 0.046
RSAD1 (UniProt Q9HA92)	1.1 ± 0.14
OSGEPL1 (UniProt Q9H4B0)	1.07 ± 0.087
UniProt Q9HAU0 and related entries	0.956 ± 0.085
PDF (UniProt Q9HBH1)	0.983 ± 0.015

Target	NP40-soluble protein abundance
UniProt Q9H936 and related entries	0.911 ± 0.053
MVB12B (UniProt Q9H7P6)	0.994 ± 0.026
TAOK3 (UniProt Q9H2K8)	1.02 ± 0.053
UniProt Q9C0D2 and related entries	0.969 ± 0.044
PHAX (UniProt Q9H814)	0.997 ± 0.042
UniProt Q9H3N1	0.959 ± 0.022
MRPL46 (UniProt Q9H2W6)	0.922 ± 0.14
AGO4 (UniProt Q9HCK5)	1.03 ± 0.07
LYRM4 (UniProt Q9HD34)	0.917 ± 0.072
VPS16 (UniProt Q9H269)	1.05 ± 0.06
RAB33B (UniProt Q9H082)	1.02 ± 0.029
UBA5 (UniProt Q9GZZ9)	1.01 ± 0.058
UniProt Q9HD47 and related entries	0.986 ± 0.081
UniProt Q9H3H1 and related entries	1.05 ± 0.072
UniProt Q9H871	1.03 ± 0.069
UniProt Q9HD26 and related entries	1.01 ± 0.028
UniProt Q9HCE5	1.03 ± 0.068
UniProt Q9H6K5 and related entries	1.02 ± 0.052
NUCKS1 (UniProt Q9H1E3)	0.901 ± 0.086

Same assay, conditions: concentration: 0.5mM

Target	NP40-soluble protein abundance
UniProt Q9H4A4 and related entries	1.05 ± 0.041
EHMT1 (UniProt Q9H9B1)	0.9685 ± 0.0016
UniProt Q9HCJ0 and related entries	0.978 ± 0.099
RACGAP1 (UniProt Q9H0H5)	1.1 ± 0.034
APOBEC3G (UniProt Q9HC16)	0.949 ± 0.14
PUS7L (UniProt Q9H0K6)	1.06 ± 0.17
CENPH (UniProt Q9H3R5)	0.888 ± 0.15
MTIF3 (UniProt Q9H2K0)	0.946 ± 0.11
UniProt Q9H6Z4 and related entries	0.966 ± 0.03
PTPN23 (UniProt Q9H3S7)	1.04 ± 0.028
UniProt Q9HAF1 and related entries	0.996 ± 0.21
UniProt Q9H098 and related entries	1.01 ± 0.09
DSN1 (UniProt Q9H410)	0.989 ± 0.023
RRAGC (UniProt Q9HB90)	1.1 ± 0.07
ATG5 (UniProt Q9H1Y0)	1.01 ± 0.044
RSAD1 (UniProt Q9HA92)	1.05 ± 0.067
OSGEPL1 (UniProt Q9H4B0)	1.08 ± 0.018
UniProt Q9HAU0 and related entries	0.958 ± 0.086
PDF (UniProt Q9HBH1)	0.954 ± 0.038

Target	NP40-soluble protein abundance
UniProt Q9H936 and related entries	0.931 ± 0.072
MVB12B (UniProt Q9H7P6)	0.957 ± 0.064
TAOK3 (UniProt Q9H2K8)	1.033 ± 0.0076
UniProt Q9C0D2 and related entries	1.06 ± 0.047
PHAX (UniProt Q9H814)	1.01 ± 0.061
UniProt Q9H3N1	0.988 ± 0.04
MRPL46 (UniProt Q9H2W6)	0.888 ± 0.15
AGO4 (UniProt Q9HCK5)	1.01 ± 0.16
LYRM4 (UniProt Q9HD34)	0.943 ± 0.052
VPS16 (UniProt Q9H269)	0.971 ± 0.056
RAB33B (UniProt Q9H082)	0.986 ± 0.063
UBA5 (UniProt Q9GZZ9)	1.03 ± 0.056
UniProt Q9HD47 and related entries	0.985 ± 0.067
UniProt Q9H3H1 and related entries	1.04 ± 0.053
UniProt Q9H871	1.02 ± 0.1
UniProt Q9HD26 and related entries	1.03 ± 0.11
UniProt Q9HCE5	1.04 ± 0.063
UniProt Q9H6K5 and related entries	0.963 ± 0.081
NUCKS1 (UniProt Q9H1E3)	0.834 ± 0.1
